The list is a part of this screen's results and no random one: it is rich in T/C values a quarter to a half above the control, in often repeated tests (any T/C) and in doses without a T/C. Other doses and runs of a compound stand elsewhere. T/C gives the treated animals as a percentage of the vehicle group. Some entries give survivors of the animals treated and no T/C: the source files T/C as zero there, which appears to mark a toxic dose or a test without result, not a measured value. Some doses without a T/C left all or most animals alive at the check, yet need not have been tolerated: survival well below the control is almost never listed, so the zero probably covers shortened survival too. Counts of survivors are from the toxicity check (mostly the fifth day) where no day follows; animals may have died later. Schedule codes are those of the source, read here as Q, the interval in days (D) or hours (H), X, the number of doses. Additions like (4×) count equal records among those shown. Some entries were tested several times; the values are given in rising order. For survival time, the PubChem record calls one and a half times the control and up active, and a quarter to a half above the control has no call in these data; cut-offs in other NCI protocols can differ. Some T/C values carry the count of animals alive at the toxicity check (mostly the fifth day); without a count, all were alive then. Some schedule codes hold Z or #, which are not explained here.
System: B6C3F1 mice, intracerebral ependymoblastoma, median survival T/C
Experiment: NCI In Vivo Anticancer Drug Screen. Data for tumor model Ependymoblastoma (intracerebral) in B6C3F1 mice
Details: T/C endpoint: median survival time, higher T/C = longer survival
Procedure: The antitumor activity of compounds was measured in mice bearing transplantable tumors. Survival or tumor size were measured and the results are expressed as the measurement made in the treated group (T) divided by the measurement made in the vehicle treated control group (C). The tumor model used in this assay is Ependymoblastoma (intracerebral) in B6C3F1 mice

[1] = dose: 100.0 mg/kg/injection, schedule: Q01DX005 (ip), vehicle: saline with Tween-80
[2] = dose: 512.0 mg/kg/injection, schedule: Q01DX001 (ip), vehicle: Klucel (hydroxypropylcellulose) (HPC)
[3] = dose: 192.0 mg/kg/injection, schedule: Q01DX001 (ip), vehicle: Klucel (hydroxypropylcellulose) (HPC)

## O=C1NC2(CCCCC2)C(=O)N1CCN(CCCl)CCCl
dose: 2.0 mg/kg/injection, schedule: Q01DX005 (ip), vehicle: saline, evaluated on day 45
  T/C: 101 % of control
dose: 2.0 mg/kg/injection, schedule: Q01DX005 (ip), vehicle: saline, evaluated on day 60
  T/C: 95 [9 of 10 alive], 103, 107 % of control [9 of 10 alive]
dose: 4.0 mg/kg/injection, schedule: Q01DX005 (ip), vehicle: saline, evaluated on day 45
  T/C: 101 and 104 % of control
dose: 4.0 mg/kg/injection, schedule: Q01DX005 (ip), vehicle: saline, evaluated on day 60
  T/C: 96, 103, 104, 123 % of control
dose: 8.0 mg/kg/injection, schedule: Q01DX005 (ip), vehicle: saline, evaluated on day 45
  T/C: 112 and 128 % of control
dose: 8.0 mg/kg/injection, schedule: Q01DX005 (ip), vehicle: saline, evaluated on day 60
  T/C: 103, 106, 116, 121 % of control
dose: 10.0 mg/kg/injection, schedule: Q01DX005 (ip), vehicle: other
  T/C: 130 % of control
dose: 12.0 mg/kg/injection, schedule: Q01DX005 (ip), vehicle: Klucel (hydroxypropylcellulose) (HPC)
  survivor count: 10 of 10
dose: 12.0 mg/kg/injection, schedule: Q01DX005 (oral), vehicle: Klucel (hydroxypropylcellulose) (HPC)
  survivor count: 10 of 10
dose: 12.5 mg/kg/injection, schedule: Q01DX005 (ip), vehicle: Klucel (hydroxypropylcellulose) (HPC)
  survivor count: 9 of 10
dose: 16.0 mg/kg/injection, schedule: Q01DX005 (ip), vehicle: Klucel (hydroxypropylcellulose) (HPC)
  T/C: 147 % of control
dose: 16.0 mg/kg/injection, schedule: Q01DX005 (ip), vehicle: saline, evaluated on day 45
  T/C: 98 % of control
dose: 16.0 mg/kg/injection, schedule: Q01DX005 (ip), vehicle: saline, evaluated on day 60
  T/C: 100, 108, 113 % of control
dose: 16.0 mg/kg/injection, schedule: Q01DX005 (ip), vehicle: saline
  survivor count: 9 of 10 (2×)
dose: 20.0 mg/kg/injection, schedule: Q01DX005 (ip), vehicle: other
  survivor count: 5 of 8
dose: 20.0 mg/kg/injection, schedule: Q01DX005 (ip), vehicle: saline
  survivor count: 7 of 8
dose: 24.0 mg/kg/injection, schedule: Q01DX005 (ip), vehicle: Klucel (hydroxypropylcellulose) (HPC)
  survivor count: 7 of 10
dose: 25.0 mg/kg/injection, schedule: Q01DX005 (ip), vehicle: Klucel (hydroxypropylcellulose) (HPC)
  survivor count: 7 of 10
dose: 32.0 mg/kg/injection, schedule: Q01DX005 (ip), vehicle: Klucel (hydroxypropylcellulose) (HPC)
  survivor count: 4 of 10
dose: 32.0 mg/kg/injection, schedule: Q01DX005 (ip), vehicle: saline, evaluated on day 45
  T/C: 122 % of control
dose: 32.0 mg/kg/injection, schedule: Q01DX005 (ip), vehicle: saline, evaluated on day 60
  T/C: 117 and 125 % of control
dose: 32.0 mg/kg/injection, schedule: Q01DX005 (ip), vehicle: saline
  survivor count: 1 of 10 and 9 of 10
dose: 40.0 mg/kg/injection, schedule: Q01DX005 (ip), vehicle: other
  survivor count: 1 of 8
dose: 40.0 mg/kg/injection, schedule: Q01DX005 (ip), vehicle: saline
  survivor count: 2 of 8
dose: 48.0 mg/kg/injection, schedule: Q01DX005 (oral), vehicle: Klucel (hydroxypropylcellulose) (HPC)
  survivor count: 6 of 6
dose: 64.0 mg/kg/injection, schedule: Q01DX005 (ip), vehicle: saline
  survivor count: 0 of 10 and 3 of 10
dose: 96.0 mg/kg/injection, schedule: Q01DX005 (oral), vehicle: Klucel (hydroxypropylcellulose) (HPC)
  survivor count: 5 of 6
dose: 128.0 mg/kg/injection, schedule: Q01DX005 (ip), vehicle: saline
  survivor count: 0 of 10 (2×)

## CCSc1ncnc2c1ncn2C1OC(CO)C(O)C1O (stereo unspecified)
[1]
  T/C: 127 % of control [9 of 10 alive]
dose: 200.0 mg/kg/injection, schedule: Q01DX005 (ip), vehicle: saline with Tween-80
  T/C: 128 % of control
dose: 400.0 mg/kg/injection, schedule: Q01DX005 (ip), vehicle: saline with Tween-80
  survivor count: 0 of 10, 1 of 10, 3 of 10

## S=P(N1CC1)(N1CC1)N1CC1.[Cl-].[Cl-].[NH2-].[NH2-].[Pt+4]
dose: 3.0 mg/kg/injection, schedule: Q01DX005 (ip), vehicle: dextrose
  T/C: 148 % of control [9 of 10 alive]
dose: 6.0 mg/kg/injection, schedule: Q01DX005 (ip), vehicle: dextrose
  survivor count: 10 of 10
dose: 12.0 mg/kg/injection, schedule: Q01DX005 (ip), vehicle: dextrose
  survivor count: 10 of 10 (2×)
dose: 24.0 mg/kg/injection, schedule: Q01DX005 (ip), vehicle: dextrose
  survivor count: 4 of 10 and 7 of 10
dose: 48.0 mg/kg/injection, schedule: Q01DX005 (ip), vehicle: dextrose
  survivor count: 2 of 10 (2×)

## CC(C)c1cc(C(=O)O)c(O)c(C(C)C)c1.CC(C)c1cc(C(=O)O)c(O)c(C(C)C)c1.[Cu]
dose: 25.0 mg/kg/injection, schedule: Q01DX005 (ip), vehicle: saline with Tween-80
  survivor count: 9 of 10
dose: 50.0 mg/kg/injection, schedule: Q01DX005 (ip), vehicle: saline with Tween-80
  survivor count: 5 of 10
[1]
  survivor count: 0 of 10

## CC(C)=CCC1=C(O)c2ccccc2C(=O)C1=O
dose: 64.0 mg/kg/injection, schedule: Q01DX001 (ip), vehicle: Klucel (hydroxypropylcellulose) (HPC)
  T/C: 101 [survivors not given], 105, 107 [survivors not given], 111 % of control [survivors not given]
dose: 128.0 mg/kg/injection, schedule: Q01DX001 (ip), vehicle: Klucel (hydroxypropylcellulose) (HPC)
  T/C: 92 [survivors not given], 100 [survivors not given], 105 [9 of 10 alive], 115 % of control [survivors not given]
dose: 256.0 mg/kg/injection, schedule: Q01DX001 (ip), vehicle: Klucel (hydroxypropylcellulose) (HPC)
  T/C: 93 [survivors not given], 94 [survivors not given], 95 [survivors not given], 103 % of control [6 of 10 alive]
dose: 256.0 mg/kg/injection, schedule: Q01DX005 (ip), vehicle: Klucel (hydroxypropylcellulose) (HPC)
  survivor count: 3 of 10
[2]
  T/C: 99 % of control [survivors not given]
  survivor count: 1 of 10

## ClC(Cl)=C(Cl)Cl
dose: 400.0 mg/kg/injection, schedule: Q01DX005 (ip), vehicle: other
  survivor count: 2 of 10

## Nc1nc(=S)c2ncn(C3CC(O)C(CO)O3)c2[nH]1 (stereo unspecified)
dose: 8.0 mg/kg/injection, schedule: Q01DX005 (ip), vehicle: saline with Tween-80
  survivor count: 10 of 10
dose: 16.0 mg/kg/injection, schedule: Q01DX005 (ip), vehicle: saline with Tween-80
  survivor count: 10 of 10

## COc1ccc2c(c1)CCC(c1ccccc1)=C2c1ccc(OCCN2CCCC2)cc1
dose: 24.0 mg/kg/injection, schedule: Q01DX001 (ip), vehicle: Klucel (hydroxypropylcellulose) (HPC)
  T/C: 95 [survivors not given], 99 [survivors not given], 100 [survivors not given], 107 % of control [9 of 10 alive]
dose: 48.0 mg/kg/injection, schedule: Q01DX001 (ip), vehicle: Klucel (hydroxypropylcellulose) (HPC)
  T/C: 98 [survivors not given] (2×), 108, 108 % of control [survivors not given]
dose: 96.0 mg/kg/injection, schedule: Q01DX001 (ip), vehicle: Klucel (hydroxypropylcellulose) (HPC)
  T/C: 93, 97 [survivors not given], 106 [survivors not given], 112 % of control [survivors not given]
dose: 128.0 mg/kg/injection, schedule: Q01DX005 (ip), vehicle: Klucel (hydroxypropylcellulose) (HPC)
  survivor count: 0 of 10
[3]
  T/C: 97 [survivors not given], 99 [survivors not given], 107 % of control [survivors not given]
  survivor count: 2 of 10

## C(COCCOCC1CO1)OCCOCC1CO1 (stereo unspecified)
dose: 200.0 mg/kg/injection, schedule: Q01DX005 (ip), vehicle: saline
  T/C: 127 % of control

## COC1OC(CO)C(O)C(NC(=O)N(C)N=O)C1O (stereo unspecified)
dose: 2.0 mg/kg/injection, schedule: Q## X006 (ip), vehicle: saline + alcohol
  T/C: 125 % of control
dose: 8.0 mg/kg/injection, schedule: Q01DX005 (ip), vehicle: saline + alcohol
  T/C: 127 % of control
dose: 16.0 mg/kg/injection, schedule: Q## X004 (ip), vehicle: saline + alcohol
  T/C: 127 % of control
dose: 16.0 mg/kg/injection, schedule: Q## X006 (ip), vehicle: saline + alcohol
  T/C: 130 % of control
dose: 64.0 mg/kg/injection, schedule: Q01DX005 (oral), vehicle: saline + alcohol
  T/C: 136 % of control
dose: 256.0 mg/kg/injection, schedule: Q01DX001 (oral), vehicle: saline + alcohol
  T/C: 129 % of control
